Measured values as given in publication PMC7288537.
Results are given in words; binding and its absence hold for the method and conditions named. In cells and extracts the contact can be indirect. Some binding calls cover weakened binding; strength is not graded here.

The chains behind the UniProt entries cited, without tags or fusion partners.
UniProt O95863: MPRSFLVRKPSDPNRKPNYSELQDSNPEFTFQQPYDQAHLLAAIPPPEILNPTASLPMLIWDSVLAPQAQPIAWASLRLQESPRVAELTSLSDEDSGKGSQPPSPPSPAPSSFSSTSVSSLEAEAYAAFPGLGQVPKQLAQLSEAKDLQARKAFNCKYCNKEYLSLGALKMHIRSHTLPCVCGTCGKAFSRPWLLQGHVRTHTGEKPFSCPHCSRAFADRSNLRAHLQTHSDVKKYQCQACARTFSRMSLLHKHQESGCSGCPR

B1: Tripartite motif-containing protein 2 (TRIM2), endogenous in A549 cells (protein, UniProt Q9C040 1-744)
chain: MASEGTNIPSPVVRQIDKQFLICSICLERYKNPKVLPCLHTFCERCLQNYIPAHSLTLSCPVCRQTSILPEKGVAALQNNFFITNLMDVLQRTPGSNAEESSILETVTAVAAGKPLSCPNHDGNVMEFYCQSCETAMCRECTEGEHAEHPTVPLKDVVEQHKASLQVQLDAVNKRLPEIDSALQFISEIIHQLTNQKASIVDDIHSTFDELQKTLNVRKSVLLMELEVNYGLKHKVLQSQLDTLLQGQESIKSCSNFTAQALNHGTETEVLLVKKQMSEKLNELADQDFPLHPRENDQLDFIVETEGLKKSIHNLGTILTTNAVASETVATGEGLRQTIIGQPMSVTITTKDKDGELCKTGNAYLTAELSTPDGSVADGEILDNKNGTYEFLYTVQKEGDFTLSLRLYDQHIRGSPFKLKVIRSADVSPTTEGVKRRVKSPGSGHVKQKAVKRPASMYSTGKRKENPIEDDLIFRVGTKGRNKGEFTNLQGVAASTNGKILIADSNNQCVQIFSNDGQFKSRFGIRGRSPGQLQRPTGVAVHPSGDIIIADYDNKWVSIFSSDGKFKTKIGSGKLMGPKGVSVDRNGHIIVVDNKACCVFIFQPNGKIVTRFGSRGNGDRQFAGPHFAAVNSNNEIIITDFHNHSVKVFNQEGEFMLKFGSNGEGNGQFNAPTGVAVDSNGNIIVADWGNSRIQVFDGSGSFLSYINTSADPLYGPQGLALTSDGHVVVADSGNHCFKVYRYLQ
B2: Tripartite motif-containing protein 2 (TRIM2), overexpressed in H322 cells (protein, UniProt Q9C040 1-744)
chain: MASEGTNIPSPVVRQIDKQFLICSICLERYKNPKVLPCLHTFCERCLQNYIPAHSLTLSCPVCRQTSILPEKGVAALQNNFFITNLMDVLQRTPGSNAEESSILETVTAVAAGKPLSCPNHDGNVMEFYCQSCETAMCRECTEGEHAEHPTVPLKDVVEQHKASLQVQLDAVNKRLPEIDSALQFISEIIHQLTNQKASIVDDIHSTFDELQKTLNVRKSVLLMELEVNYGLKHKVLQSQLDTLLQGQESIKSCSNFTAQALNHGTETEVLLVKKQMSEKLNELADQDFPLHPRENDQLDFIVETEGLKKSIHNLGTILTTNAVASETVATGEGLRQTIIGQPMSVTITTKDKDGELCKTGNAYLTAELSTPDGSVADGEILDNKNGTYEFLYTVQKEGDFTLSLRLYDQHIRGSPFKLKVIRSADVSPTTEGVKRRVKSPGSGHVKQKAVKRPASMYSTGKRKENPIEDDLIFRVGTKGRNKGEFTNLQGVAASTNGKILIADSNNQCVQIFSNDGQFKSRFGIRGRSPGQLQRPTGVAVHPSGDIIIADYDNKWVSIFSSDGKFKTKIGSGKLMGPKGVSVDRNGHIIVVDNKACCVFIFQPNGKIVTRFGSRGNGDRQFAGPHFAAVNSNNEIIITDFHNHSVKVFNQEGEFMLKFGSNGEGNGQFNAPTGVAVDSNGNIIVADWGNSRIQVFDGSGSFLSYINTSADPLYGPQGLALTSDGHVVVADSGNHCFKVYRYLQ

Target: Snail1 protein, endogenous in A549 and H322 cells (human (endogenous in A549 and H322)) (UniProt O95863)
Assay: co-IP; cell lysate (RIPA buffer) incubated with antibody-conjugated magnetic beads for 1 h at room temperature, eluate blotted; Fig. 5g A549 cells, Fig. 5h forward and reverse Co-IP; precipitating antibodies not named

| Binder | binding |
| --- | --- |
| B1 | binds |
| B2 | binds |
